# The other results are listed elsewhere or left out.
# By UniProt entry, the sequences of proteins in these tests, tags left out. Where a name states a change or a piece, a line headed by the entry shows the natural chain unless it says otherwise.
# UniProt Q16719: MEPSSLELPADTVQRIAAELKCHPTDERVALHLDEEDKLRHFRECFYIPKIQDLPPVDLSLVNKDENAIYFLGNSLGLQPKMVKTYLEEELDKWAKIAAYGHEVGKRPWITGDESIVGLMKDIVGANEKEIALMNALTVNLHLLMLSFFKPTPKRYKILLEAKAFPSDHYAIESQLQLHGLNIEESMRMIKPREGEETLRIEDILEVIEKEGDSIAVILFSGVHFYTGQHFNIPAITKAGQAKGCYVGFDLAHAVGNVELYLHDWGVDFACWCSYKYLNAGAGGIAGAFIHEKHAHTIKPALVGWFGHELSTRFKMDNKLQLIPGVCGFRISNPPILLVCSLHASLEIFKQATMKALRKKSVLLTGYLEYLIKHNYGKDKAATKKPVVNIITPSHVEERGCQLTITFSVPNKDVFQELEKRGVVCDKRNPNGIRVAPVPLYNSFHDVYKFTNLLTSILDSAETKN
# UniProt O95202: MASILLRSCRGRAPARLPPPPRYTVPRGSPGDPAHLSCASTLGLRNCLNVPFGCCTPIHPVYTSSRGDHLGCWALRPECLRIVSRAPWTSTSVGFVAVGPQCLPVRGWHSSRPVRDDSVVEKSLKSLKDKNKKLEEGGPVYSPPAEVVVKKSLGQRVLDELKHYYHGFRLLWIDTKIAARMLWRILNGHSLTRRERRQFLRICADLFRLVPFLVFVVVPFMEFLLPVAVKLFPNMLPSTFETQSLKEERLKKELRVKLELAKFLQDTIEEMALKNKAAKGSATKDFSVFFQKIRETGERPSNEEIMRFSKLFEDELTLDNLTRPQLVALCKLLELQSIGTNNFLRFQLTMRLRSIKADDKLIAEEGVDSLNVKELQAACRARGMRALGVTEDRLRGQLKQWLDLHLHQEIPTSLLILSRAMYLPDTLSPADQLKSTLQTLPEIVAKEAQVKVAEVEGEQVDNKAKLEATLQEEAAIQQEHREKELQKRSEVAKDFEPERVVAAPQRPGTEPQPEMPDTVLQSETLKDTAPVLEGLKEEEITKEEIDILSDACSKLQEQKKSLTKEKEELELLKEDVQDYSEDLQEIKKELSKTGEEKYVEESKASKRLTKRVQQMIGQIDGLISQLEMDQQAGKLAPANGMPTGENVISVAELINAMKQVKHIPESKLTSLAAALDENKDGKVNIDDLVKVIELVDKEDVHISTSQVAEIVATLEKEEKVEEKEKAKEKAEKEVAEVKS
# UniProt Q6IAA8, whole entry, looked up: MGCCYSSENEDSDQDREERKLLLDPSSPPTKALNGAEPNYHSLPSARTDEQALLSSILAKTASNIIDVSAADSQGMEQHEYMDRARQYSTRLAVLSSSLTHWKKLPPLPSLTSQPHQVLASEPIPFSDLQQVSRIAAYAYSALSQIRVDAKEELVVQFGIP
# UniProt Q9P2J5: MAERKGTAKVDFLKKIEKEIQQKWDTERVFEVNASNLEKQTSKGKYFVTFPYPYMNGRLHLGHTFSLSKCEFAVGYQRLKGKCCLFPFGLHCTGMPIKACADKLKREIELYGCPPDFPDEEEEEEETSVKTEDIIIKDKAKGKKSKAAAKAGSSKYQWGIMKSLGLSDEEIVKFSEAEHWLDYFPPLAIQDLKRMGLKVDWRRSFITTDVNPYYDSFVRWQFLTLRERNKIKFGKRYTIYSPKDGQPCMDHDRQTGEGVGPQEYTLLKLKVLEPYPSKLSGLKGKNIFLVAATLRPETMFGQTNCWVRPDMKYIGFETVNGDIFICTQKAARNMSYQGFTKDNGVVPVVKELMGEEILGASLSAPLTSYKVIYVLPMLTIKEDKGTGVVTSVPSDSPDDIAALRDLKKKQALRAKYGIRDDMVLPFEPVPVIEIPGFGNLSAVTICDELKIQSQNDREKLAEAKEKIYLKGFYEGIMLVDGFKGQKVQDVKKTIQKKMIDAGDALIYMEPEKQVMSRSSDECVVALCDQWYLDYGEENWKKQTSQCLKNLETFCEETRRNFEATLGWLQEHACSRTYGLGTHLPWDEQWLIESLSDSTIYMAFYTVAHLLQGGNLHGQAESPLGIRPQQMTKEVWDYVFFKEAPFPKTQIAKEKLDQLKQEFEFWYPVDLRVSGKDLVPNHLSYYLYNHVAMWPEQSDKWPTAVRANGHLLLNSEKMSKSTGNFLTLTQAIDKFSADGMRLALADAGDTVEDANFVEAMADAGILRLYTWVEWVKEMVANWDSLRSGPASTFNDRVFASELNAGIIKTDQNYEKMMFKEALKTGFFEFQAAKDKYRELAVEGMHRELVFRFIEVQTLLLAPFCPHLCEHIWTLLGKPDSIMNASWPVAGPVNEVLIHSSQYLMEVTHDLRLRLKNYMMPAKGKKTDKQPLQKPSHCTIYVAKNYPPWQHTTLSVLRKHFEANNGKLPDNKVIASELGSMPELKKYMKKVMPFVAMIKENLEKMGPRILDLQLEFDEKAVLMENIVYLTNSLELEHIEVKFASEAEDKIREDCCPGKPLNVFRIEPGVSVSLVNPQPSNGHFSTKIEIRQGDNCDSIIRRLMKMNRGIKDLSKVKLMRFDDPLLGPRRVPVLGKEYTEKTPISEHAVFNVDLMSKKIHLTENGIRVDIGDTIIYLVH
# UniProt Q6P1A2: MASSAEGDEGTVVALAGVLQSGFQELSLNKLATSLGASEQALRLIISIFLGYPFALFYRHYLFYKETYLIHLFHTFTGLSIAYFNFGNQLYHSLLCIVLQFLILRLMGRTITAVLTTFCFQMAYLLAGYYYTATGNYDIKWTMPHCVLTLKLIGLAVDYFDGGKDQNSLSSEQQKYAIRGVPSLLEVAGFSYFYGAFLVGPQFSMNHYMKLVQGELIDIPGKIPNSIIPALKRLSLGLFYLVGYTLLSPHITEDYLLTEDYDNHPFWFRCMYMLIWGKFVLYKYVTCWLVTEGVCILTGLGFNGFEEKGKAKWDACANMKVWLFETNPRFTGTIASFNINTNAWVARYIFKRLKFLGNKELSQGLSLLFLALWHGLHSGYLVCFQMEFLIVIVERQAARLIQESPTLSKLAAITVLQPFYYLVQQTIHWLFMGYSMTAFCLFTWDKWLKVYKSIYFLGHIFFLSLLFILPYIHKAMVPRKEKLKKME
# UniProt Q8NF37: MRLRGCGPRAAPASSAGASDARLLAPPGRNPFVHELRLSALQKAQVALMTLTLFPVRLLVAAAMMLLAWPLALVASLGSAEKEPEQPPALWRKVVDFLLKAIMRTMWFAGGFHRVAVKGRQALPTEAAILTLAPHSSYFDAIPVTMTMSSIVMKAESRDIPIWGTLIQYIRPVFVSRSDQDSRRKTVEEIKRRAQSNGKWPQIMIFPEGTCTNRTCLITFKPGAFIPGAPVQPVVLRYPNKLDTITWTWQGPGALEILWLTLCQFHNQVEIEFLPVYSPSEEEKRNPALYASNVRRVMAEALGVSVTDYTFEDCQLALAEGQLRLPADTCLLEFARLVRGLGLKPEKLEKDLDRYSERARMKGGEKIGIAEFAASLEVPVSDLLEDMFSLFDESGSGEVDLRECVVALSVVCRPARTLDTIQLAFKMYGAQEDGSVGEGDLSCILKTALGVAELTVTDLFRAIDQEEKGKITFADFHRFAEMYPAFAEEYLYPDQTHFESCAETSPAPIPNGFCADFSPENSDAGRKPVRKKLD
# UniProt Q9NUP9: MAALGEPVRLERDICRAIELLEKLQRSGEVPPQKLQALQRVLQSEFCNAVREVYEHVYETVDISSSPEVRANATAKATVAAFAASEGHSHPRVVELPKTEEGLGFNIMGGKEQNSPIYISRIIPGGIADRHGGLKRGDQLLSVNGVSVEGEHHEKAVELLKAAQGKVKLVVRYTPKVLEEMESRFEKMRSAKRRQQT
# UniProt P09382, whole entry, looked up: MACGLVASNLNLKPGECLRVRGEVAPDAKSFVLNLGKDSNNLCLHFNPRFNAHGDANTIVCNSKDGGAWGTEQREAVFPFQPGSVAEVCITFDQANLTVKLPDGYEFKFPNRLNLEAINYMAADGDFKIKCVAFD
# UniProt Q14739: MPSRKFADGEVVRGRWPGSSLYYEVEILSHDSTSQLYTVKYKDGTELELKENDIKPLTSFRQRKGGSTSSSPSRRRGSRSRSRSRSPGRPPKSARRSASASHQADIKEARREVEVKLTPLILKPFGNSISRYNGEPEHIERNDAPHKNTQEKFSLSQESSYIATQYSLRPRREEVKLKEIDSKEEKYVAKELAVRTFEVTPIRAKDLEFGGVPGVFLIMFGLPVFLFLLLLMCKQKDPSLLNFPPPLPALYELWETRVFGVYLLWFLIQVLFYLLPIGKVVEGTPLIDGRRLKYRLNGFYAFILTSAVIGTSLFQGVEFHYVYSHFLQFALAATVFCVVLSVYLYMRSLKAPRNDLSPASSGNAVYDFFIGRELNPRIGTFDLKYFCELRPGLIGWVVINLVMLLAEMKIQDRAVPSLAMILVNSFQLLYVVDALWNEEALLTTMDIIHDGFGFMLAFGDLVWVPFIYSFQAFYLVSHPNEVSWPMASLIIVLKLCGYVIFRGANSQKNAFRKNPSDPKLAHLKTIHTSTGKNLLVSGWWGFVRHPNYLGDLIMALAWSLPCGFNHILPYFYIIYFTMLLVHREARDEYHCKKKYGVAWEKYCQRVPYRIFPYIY
# UniProt P25791: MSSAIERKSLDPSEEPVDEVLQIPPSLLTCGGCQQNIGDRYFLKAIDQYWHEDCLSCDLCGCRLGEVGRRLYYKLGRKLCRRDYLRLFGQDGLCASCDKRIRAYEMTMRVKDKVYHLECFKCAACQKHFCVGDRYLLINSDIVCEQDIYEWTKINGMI
# UniProt Q6UWP7: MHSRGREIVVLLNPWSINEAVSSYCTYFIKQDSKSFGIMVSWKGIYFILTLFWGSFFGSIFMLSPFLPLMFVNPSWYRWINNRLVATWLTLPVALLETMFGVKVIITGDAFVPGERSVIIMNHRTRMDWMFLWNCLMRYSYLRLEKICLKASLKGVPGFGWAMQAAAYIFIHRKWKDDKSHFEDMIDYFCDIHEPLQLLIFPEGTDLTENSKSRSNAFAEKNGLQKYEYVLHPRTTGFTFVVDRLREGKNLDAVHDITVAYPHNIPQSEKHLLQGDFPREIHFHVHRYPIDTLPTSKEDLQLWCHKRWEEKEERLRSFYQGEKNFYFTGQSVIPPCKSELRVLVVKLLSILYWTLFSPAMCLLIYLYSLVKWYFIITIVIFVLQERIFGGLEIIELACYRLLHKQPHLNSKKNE
# UniProt Q92615, whole entry, looked up: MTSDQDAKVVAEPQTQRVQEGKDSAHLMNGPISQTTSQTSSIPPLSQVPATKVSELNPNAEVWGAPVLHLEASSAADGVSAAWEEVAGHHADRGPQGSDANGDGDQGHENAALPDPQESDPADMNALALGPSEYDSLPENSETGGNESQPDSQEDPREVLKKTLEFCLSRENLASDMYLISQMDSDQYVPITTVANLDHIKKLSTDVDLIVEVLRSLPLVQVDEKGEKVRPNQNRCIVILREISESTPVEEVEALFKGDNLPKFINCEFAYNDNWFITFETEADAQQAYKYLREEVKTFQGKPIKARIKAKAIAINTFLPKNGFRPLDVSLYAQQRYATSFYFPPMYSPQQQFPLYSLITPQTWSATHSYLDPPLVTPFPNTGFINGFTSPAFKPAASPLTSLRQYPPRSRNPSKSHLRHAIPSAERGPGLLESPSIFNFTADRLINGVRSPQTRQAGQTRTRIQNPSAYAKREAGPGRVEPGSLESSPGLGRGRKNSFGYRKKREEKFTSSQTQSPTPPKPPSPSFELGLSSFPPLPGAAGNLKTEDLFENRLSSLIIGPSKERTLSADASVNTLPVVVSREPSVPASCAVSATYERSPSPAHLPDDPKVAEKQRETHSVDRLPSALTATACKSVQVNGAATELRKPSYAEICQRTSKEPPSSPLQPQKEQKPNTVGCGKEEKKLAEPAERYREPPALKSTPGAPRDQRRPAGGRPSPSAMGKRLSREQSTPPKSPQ
# UniProt Q5T3J3: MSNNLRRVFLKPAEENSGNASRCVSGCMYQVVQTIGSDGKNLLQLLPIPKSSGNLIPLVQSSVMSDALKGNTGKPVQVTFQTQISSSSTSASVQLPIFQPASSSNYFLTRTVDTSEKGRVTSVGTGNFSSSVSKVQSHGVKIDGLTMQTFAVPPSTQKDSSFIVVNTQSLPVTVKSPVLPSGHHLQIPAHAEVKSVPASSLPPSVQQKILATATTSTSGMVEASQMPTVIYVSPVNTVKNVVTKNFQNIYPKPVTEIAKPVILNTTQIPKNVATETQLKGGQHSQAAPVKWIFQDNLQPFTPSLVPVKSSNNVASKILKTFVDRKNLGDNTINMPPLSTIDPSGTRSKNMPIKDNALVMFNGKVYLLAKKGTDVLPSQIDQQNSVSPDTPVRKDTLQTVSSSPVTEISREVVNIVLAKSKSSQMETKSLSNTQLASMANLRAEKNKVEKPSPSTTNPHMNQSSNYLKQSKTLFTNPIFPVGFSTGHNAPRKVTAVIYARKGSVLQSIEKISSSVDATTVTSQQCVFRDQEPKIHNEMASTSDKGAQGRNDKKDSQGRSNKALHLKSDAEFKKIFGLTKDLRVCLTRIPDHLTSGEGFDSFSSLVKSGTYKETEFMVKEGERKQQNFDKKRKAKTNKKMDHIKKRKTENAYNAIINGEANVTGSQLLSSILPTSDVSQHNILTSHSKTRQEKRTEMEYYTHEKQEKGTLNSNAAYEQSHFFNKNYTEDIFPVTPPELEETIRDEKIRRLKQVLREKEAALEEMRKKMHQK
# Legend:
# Test in all cases: log2 fold change, soluble protein after heating vs DMSO (PISA); higher = thermal stabilisation; K562 cells, 10 uM, 30 min; active = over 0.2 and 3.5 SD of the protein, either way, in both replicates (recomputed)
# [1] = compound: COC1=CC=C(C=C1)CN2C=CC3=C2C=C(C=C3)C(=O)NO
# How it was run: (§1)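 Quantification of soluble protein used TMTpro 16plex LC-MS/MS, with channel sums equalised. Samples were the supernatant after 21,000xg for 90 min of pooled aliquots from K562 cells (2×10^6 cells/mL) treated with 10 μM compound for 30 min, heated for 3 min over 48°C-58°C, and extracted in PBS with 0.5% NP-40 at 4°C. Values, from duplicates, describe thermal stability against control samples on a log2 fold-change scale.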
# filanesib = compound: CON(C)C(=O)N1N=C(c2cc(F)ccc2F)S[C@@]1(CCCN)c1ccccc1 [filanesib]
# How it was run: as §1
# zotarolimus = compound: CO[C@H]1C[C@@H]2CC[C@@H](C)[C@@](O)(O2)C(=O)C(=O)N2CCCC[C@H]2C(=O)O[C@H]([C@H](C)C[C@@H]2CC[C@H](n3cnnn3)[C@H](OC)C2)CC(=O)[C@H](C)/C=C(\C)[C@@H](O)[C@@H](OC)C(=O)[C@H](C)C[C@H](C)/C=C/C=C/C=C/1C [zotarolimus]
# How it was run: as §1
# idasanutlin = compound: COc1cc(C(=O)O)ccc1NC(=O)[C@@H]1N[C@@H](CC(C)(C)C)[C@](C#N)(c2ccc(Cl)cc2F)[C@H]1c1cccc(Cl)c1F [idasanutlin]
# How it was run: as §1
# alisertib = compound: COc1cc(Nc2ncc3c(n2)-c2ccc(Cl)cc2C(c2c(F)cccc2OC)=NC3)ccc1C(=O)O [alisertib]
# How it was run: as §1
# [2] = compound: COc1cc2nc(-c3cc(F)ccc3O)nc(N[C@@H]3CNC[C@H]3C(C)(C)O)c2cc1OC
# How it was run: as §1
# gefitinib = compound: COc1cc2ncnc(Nc3ccc(F)c(Cl)c3)c2cc1OCCCN1CCOCC1 [gefitinib]
# How it was run: as §1
# [3] = compound: COc1cccc2cc(-c3nc([C@H]4CC[C@H](C(=O)O)CC4)n4ncnc(N)c34)[nH]c12
# How it was run: as §1
# lapatinib = compound: CS(=O)(=O)CCNCc1ccc(-c2ccc3ncnc(Nc4ccc(OCc5cccc(F)c5)c(Cl)c4)c3c2)o1 [lapatinib]
# How it was run: as §1
# pictilisib = compound: CS(=O)(=O)N1CCN(Cc2cc3nc(-c4cccc5[nH]ncc45)nc(N4CCOCC4)c3s2)CC1 [pictilisib]
# How it was run: as §1
Target,log2 fold change [1],log2 fold change (filanesib),log2 fold change (zotarolimus),log2 fold change (idasanutlin),log2 fold change (alisertib),log2 fold change [2],log2 fold change (gefitinib),log2 fold change [3],log2 fold change (lapatinib),log2 fold change (pictilisib)
KTI12 (UniProt Q96EK9),inactive: 0.057,inactive: -0.042,inactive: 0.071,inactive: 0.1,inactive: 0.056,inactive: 0.074,inactive: -0.011,inactive: 0.034,inactive: 0.008,inactive: -0.02
KYNU (UniProt Q16719),inactive: 0.013,inactive: -0.003,inactive: -0.022,inactive: 0.045,inactive: 0.012,inactive: -0.006,inactive: 0.002,inactive: 0.128,inactive: 0.006,inactive: -0.055
LETM1 (UniProt O95202),inactive: 0.04,inactive: -0.148,inactive: 0.026,inactive: -0.044,inactive: -0.031,inactive: -0.149,inactive: -0.021,inactive: 0.004,inactive: -0.036,inactive: -0.004
LRPPRC (UniProt P42704),inactive: 0.303,inactive: -0.788,inactive: -0.02,inactive: 0,inactive: 0.207,inactive: -0.638,inactive: -0.189,inactive: 0.119,inactive: -0.091,inactive: -0.119
KYAT3 (UniProt Q6YP21),inactive: -0.049,inactive: -0.019,inactive: -0.017,inactive: -0.037,inactive: -0.019,inactive: 0.024,inactive: -0.003,inactive: 0.063,inactive: 0.014,inactive: -0.018
"LRBA, A0A494BZW2",inactive: 0.006,inactive: -0.136,inactive: -0.127,inactive: -0.207,inactive: 0.001,inactive: 0.453,inactive: -0.026,inactive: 0.046,inactive: -0.097,inactive: 0.095
LAMTOR1 (UniProt Q6IAA8),inactive: 0.139,inactive: -0.051,inactive: 0.036,inactive: 0,inactive: -0.111,inactive: -0.151,inactive: -0.008,inactive: -0.237,inactive: 0.011,inactive: -0.126
LAMTOR5 (UniProt O43504),inactive: 0.053,inactive: 0.093,inactive: 0.263,inactive: -0.033,inactive: -0.073,inactive: -0.145,inactive: 0.043,inactive: -0.129,inactive: -0.015,inactive: -0.323
LRIG2 (UniProt O94898),inactive: -0.004,inactive: 0.074,inactive: -0.075,inactive: 0.064,inactive: -0.047,inactive: 0.002,inactive: -0.001,inactive: 0.044,inactive: 0.034,inactive: 0.054
LARS (UniProt Q9P2J5),inactive: -0.017,inactive: 0.262,inactive: 0.067,inactive: 0.18,inactive: -0.109,inactive: -0.002,inactive: -0.007,inactive: -0.213,inactive: 0.035,inactive: -0.1
LRRC40 (UniProt Q9H9A6),inactive: -0.017,inactive: -0.028,inactive: -0.026,inactive: -0.024,inactive: 0.074,inactive: 0.021,inactive: 0.013,inactive: -0.093,inactive: 0.01,inactive: -0.029
LIAS (UniProt O43766),inactive: -0.131,inactive: -0.049,inactive: -0.097,inactive: -0.032,inactive: -0.041,inactive: 0.132,inactive: 0.014,inactive: 0.036,inactive: -0.051,inactive: 0.078
LPCAT3 (UniProt Q6P1A2),inactive: -0.067,active: -0.352,inactive: -0.065,inactive: -0.086,inactive: -0.055,inactive: -0.117,inactive: -0.024,inactive: -0.017,inactive: 0.172,inactive: -0.011
LPCAT1 (UniProt Q8NF37),inactive: -0.026,inactive: -0.107,inactive: 0.01,inactive: -0.055,inactive: -0.04,inactive: -0.018,inactive: 0.039,inactive: 0.093,inactive: -0.001,inactive: -0.01
LIN7C (UniProt Q9NUP9),inactive: -0.143,inactive: 0.041,inactive: -0.019,inactive: 0.009,inactive: -0.1,inactive: 0.017,inactive: 0.073,inactive: 0.016,inactive: 0.013,inactive: 0.012
LGALS1 (UniProt P09382),inactive: 0.014,inactive: -0.055,inactive: 0.024,inactive: -0.004,inactive: -0.054,inactive: 0.046,inactive: -0.028,inactive: 0.03,inactive: -0.035,inactive: -0.034
LEPR (UniProt P48357),inactive: -0.041,inactive: 0.01,inactive: 0.007,inactive: 0.03,inactive: 0.114,inactive: 0.038,inactive: -0.041,inactive: 0.022,inactive: 0.03,inactive: 0.022
LIMK2 isoform 3 (UniProt P53671),inactive: 0.029,inactive: 0.146,inactive: -0.111,inactive: 0.107,inactive: 0.12,inactive: 0.138,inactive: -0.018,inactive: 0.121,inactive: -0.346,inactive: 0.178
LBR (UniProt Q14739),inactive: -0.075,inactive: -0.065,inactive: -0.008,inactive: -0.196,inactive: -0.019,inactive: 0.079,inactive: 0.034,inactive: 0,inactive: -0.081,inactive: -0.191
LEMD2 (UniProt Q8NC56),inactive: -0.051,inactive: -0.211,inactive: 0,inactive: -0.008,inactive: 0.044,inactive: -0.271,inactive: 0.061,inactive: 0.047,inactive: 0.133,inactive: -0.007
LAP3 (UniProt P28838),inactive: 0.021,inactive: -0.042,inactive: 0,inactive: -0.05,inactive: -0.031,inactive: -0.019,inactive: 0.007,inactive: 0.074,inactive: 0.023,inactive: 0.014
LRRC20 (UniProt Q8TCA0),inactive: 0.022,inactive: -0.046,inactive: -0.017,inactive: -0.071,inactive: -0.083,inactive: 0.069,inactive: 0.092,inactive: 0.055,inactive: -0.011,inactive: -0.175
LMO2 isoform 3 (UniProt P25791),inactive: 0.038,inactive: -0.019,inactive: 0.192,inactive: 0.048,inactive: -0.054,inactive: 0.053,inactive: -0.034,inactive: -0.041,inactive: 0.008,inactive: 0.046
LCLAT1 (UniProt Q6UWP7),inactive: 0.039,inactive: -0.006,inactive: -0.02,inactive: -0.008,inactive: 0.007,inactive: 0.144,inactive: -0.025,inactive: 0.012,inactive: 0.005,inactive: -0.02
LARP4B (UniProt Q92615),inactive: 0.035,inactive: 0.056,inactive: 0.004,inactive: 0.053,inactive: -0.054,inactive: -0.108,inactive: 0.011,inactive: -0.06,inactive: 0.081,inactive: -0.009
LRIF1 (UniProt Q5T3J3),inactive: -0.004,inactive: -0.004,inactive: 0.034,inactive: 0,inactive: -0.042,inactive: -0.015,inactive: 0.004,inactive: 0.061,inactive: 0.035,inactive: 0.001
LACTB (UniProt P83111),inactive: -0.095,inactive: -0.02,inactive: -0.021,inactive: 0.066,inactive: -0.107,inactive: -0.109,inactive: -0.031,inactive: -0.001,inactive: 0.085,inactive: 0.067

# Part of the list above, reduced to log2 fold change (filanesib), log2 fold change (pictilisib) and log2 fold change [2]:
Target	log2 fold change (filanesib)	log2 fold change (pictilisib)	log2 fold change [2]
LIAS (UniProt O43766)	inactive: -0.049	inactive: 0.078	inactive: 0.132
LEMD2 (UniProt Q8NC56)	inactive: -0.211	inactive: -0.007	inactive: -0.271

# Source: the supplement of paper PMC10849652
